Assay results published in the supplement of paper PMC11732987, “Enantioselective OTUD7B fragment discovery through chemoproteomics screening and high-throughput optimisation” (Communications Chemistry, 2025).
Some of the results follow. The data scatter; read single values as rough.

Chains of the proteins cited; added tags and fusions are not shown. Lines headed by an entry give the natural chain unless they say otherwise; changes in a name come on top. Residues count along the entry.
UniProt Q12840, 382-408: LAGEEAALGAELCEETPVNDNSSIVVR
UniProt Q9Y4C1: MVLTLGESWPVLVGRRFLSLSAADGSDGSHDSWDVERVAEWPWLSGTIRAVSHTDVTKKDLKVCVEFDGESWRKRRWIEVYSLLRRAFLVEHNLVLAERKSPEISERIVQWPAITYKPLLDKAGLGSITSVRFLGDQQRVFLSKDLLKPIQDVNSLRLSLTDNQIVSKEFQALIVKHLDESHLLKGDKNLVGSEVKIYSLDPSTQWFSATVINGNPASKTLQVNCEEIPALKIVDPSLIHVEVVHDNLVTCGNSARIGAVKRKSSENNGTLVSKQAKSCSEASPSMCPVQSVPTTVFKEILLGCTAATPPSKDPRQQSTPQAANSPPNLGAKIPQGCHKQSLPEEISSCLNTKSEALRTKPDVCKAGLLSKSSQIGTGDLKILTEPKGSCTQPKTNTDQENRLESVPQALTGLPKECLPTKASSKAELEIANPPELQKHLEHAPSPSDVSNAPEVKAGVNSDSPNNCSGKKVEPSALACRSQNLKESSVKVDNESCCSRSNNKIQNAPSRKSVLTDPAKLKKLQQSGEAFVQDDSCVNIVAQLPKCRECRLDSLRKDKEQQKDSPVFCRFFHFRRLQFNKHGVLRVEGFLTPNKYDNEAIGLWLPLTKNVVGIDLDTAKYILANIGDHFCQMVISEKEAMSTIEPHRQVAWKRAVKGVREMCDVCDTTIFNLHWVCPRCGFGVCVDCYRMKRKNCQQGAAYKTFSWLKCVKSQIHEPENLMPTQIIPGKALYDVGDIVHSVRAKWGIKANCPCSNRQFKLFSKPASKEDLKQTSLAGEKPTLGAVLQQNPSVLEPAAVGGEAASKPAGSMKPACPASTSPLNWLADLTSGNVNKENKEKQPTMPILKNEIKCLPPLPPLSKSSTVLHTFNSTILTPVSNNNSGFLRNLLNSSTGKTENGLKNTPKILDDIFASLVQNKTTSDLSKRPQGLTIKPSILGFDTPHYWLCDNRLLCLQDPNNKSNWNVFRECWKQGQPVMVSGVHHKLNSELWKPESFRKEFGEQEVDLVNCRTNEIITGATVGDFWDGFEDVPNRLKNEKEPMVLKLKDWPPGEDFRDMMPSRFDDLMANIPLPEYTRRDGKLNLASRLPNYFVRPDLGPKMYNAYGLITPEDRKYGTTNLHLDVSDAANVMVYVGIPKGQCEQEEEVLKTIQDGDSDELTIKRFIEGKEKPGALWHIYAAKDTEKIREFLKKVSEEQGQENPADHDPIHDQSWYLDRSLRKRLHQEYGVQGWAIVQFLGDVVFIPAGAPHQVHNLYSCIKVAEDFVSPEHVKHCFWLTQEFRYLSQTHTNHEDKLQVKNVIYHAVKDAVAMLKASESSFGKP
UniProt Q02241: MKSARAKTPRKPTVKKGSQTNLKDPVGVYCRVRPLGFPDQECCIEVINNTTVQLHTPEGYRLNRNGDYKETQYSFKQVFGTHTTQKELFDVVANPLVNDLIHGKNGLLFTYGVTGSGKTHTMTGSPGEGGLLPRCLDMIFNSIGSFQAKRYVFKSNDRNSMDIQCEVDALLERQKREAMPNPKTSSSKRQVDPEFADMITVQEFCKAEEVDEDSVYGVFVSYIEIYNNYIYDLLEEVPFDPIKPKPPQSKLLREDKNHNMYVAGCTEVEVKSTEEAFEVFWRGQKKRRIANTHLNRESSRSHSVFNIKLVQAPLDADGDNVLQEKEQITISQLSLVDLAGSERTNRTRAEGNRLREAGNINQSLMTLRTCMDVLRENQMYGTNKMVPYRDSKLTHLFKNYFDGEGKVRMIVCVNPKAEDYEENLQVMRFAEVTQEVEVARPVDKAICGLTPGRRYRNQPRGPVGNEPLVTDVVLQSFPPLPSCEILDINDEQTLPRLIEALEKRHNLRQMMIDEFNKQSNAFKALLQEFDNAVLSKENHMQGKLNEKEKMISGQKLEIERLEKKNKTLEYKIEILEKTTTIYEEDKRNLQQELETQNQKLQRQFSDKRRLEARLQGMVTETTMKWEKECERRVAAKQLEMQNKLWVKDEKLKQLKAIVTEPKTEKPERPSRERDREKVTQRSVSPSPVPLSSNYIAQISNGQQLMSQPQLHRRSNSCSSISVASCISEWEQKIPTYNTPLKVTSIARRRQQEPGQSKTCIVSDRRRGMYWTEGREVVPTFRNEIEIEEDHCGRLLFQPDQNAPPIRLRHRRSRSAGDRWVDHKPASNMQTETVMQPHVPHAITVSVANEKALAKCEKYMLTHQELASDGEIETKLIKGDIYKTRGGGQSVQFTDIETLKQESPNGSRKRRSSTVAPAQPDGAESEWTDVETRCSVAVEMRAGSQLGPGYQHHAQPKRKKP
UniProt O60333: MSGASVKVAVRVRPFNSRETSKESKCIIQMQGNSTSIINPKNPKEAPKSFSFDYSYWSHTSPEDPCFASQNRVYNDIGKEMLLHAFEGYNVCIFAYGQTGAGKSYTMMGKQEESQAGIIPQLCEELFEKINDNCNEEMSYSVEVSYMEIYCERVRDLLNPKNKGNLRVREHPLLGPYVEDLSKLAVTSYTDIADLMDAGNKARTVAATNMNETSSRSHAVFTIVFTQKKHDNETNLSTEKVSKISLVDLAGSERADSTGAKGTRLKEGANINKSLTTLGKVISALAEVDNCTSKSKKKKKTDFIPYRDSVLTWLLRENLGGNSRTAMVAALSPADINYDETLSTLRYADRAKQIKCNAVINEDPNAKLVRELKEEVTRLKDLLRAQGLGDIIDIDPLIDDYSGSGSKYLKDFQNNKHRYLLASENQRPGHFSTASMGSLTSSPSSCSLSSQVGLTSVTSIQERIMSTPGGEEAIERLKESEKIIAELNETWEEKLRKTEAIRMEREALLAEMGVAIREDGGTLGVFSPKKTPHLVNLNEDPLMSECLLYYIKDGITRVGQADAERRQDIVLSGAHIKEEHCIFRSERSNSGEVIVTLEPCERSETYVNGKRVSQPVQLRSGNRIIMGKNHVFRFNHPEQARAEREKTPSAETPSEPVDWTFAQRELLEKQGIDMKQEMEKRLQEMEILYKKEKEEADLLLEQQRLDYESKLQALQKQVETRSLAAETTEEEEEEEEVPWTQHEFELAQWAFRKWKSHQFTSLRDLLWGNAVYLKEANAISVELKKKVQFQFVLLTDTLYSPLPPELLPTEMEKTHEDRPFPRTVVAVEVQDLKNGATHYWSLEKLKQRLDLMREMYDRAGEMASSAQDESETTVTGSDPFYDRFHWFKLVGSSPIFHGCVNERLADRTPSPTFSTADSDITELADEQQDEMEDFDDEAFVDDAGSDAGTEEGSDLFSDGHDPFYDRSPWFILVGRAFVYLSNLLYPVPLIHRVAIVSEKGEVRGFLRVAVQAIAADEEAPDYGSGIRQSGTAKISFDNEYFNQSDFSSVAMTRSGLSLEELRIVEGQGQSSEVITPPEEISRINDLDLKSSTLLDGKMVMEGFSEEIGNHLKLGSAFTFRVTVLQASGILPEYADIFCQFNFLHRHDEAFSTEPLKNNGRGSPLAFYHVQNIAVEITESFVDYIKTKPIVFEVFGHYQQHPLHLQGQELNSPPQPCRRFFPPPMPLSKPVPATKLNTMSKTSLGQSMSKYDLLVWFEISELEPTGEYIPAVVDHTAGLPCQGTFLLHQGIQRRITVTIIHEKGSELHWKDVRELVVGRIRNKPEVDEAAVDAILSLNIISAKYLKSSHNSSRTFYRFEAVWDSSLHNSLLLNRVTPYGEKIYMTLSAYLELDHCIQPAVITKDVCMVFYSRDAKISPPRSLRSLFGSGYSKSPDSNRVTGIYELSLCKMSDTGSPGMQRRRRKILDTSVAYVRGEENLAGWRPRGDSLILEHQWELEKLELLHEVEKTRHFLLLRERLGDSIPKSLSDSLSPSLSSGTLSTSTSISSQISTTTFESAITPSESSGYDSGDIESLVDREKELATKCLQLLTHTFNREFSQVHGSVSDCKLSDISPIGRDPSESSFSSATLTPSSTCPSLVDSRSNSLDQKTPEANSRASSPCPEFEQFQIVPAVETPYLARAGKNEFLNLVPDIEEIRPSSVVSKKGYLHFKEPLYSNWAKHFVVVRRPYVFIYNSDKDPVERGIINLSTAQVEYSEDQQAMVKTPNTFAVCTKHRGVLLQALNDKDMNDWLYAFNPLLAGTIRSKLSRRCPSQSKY
UniProt O15037, 142-162: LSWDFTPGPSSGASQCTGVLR
UniProt O60268: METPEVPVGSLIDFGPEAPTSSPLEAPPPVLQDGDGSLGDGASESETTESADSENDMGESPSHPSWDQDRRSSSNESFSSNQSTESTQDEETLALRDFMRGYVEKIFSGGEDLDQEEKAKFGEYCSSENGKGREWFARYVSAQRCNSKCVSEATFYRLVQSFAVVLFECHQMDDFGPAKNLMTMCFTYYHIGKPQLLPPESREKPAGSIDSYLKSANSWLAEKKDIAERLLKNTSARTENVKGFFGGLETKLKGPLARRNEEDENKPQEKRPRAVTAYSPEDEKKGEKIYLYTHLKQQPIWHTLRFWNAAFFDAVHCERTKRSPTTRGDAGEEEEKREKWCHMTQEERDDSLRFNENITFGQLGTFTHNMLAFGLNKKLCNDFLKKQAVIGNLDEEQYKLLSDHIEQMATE
UniProt Q9ULH0: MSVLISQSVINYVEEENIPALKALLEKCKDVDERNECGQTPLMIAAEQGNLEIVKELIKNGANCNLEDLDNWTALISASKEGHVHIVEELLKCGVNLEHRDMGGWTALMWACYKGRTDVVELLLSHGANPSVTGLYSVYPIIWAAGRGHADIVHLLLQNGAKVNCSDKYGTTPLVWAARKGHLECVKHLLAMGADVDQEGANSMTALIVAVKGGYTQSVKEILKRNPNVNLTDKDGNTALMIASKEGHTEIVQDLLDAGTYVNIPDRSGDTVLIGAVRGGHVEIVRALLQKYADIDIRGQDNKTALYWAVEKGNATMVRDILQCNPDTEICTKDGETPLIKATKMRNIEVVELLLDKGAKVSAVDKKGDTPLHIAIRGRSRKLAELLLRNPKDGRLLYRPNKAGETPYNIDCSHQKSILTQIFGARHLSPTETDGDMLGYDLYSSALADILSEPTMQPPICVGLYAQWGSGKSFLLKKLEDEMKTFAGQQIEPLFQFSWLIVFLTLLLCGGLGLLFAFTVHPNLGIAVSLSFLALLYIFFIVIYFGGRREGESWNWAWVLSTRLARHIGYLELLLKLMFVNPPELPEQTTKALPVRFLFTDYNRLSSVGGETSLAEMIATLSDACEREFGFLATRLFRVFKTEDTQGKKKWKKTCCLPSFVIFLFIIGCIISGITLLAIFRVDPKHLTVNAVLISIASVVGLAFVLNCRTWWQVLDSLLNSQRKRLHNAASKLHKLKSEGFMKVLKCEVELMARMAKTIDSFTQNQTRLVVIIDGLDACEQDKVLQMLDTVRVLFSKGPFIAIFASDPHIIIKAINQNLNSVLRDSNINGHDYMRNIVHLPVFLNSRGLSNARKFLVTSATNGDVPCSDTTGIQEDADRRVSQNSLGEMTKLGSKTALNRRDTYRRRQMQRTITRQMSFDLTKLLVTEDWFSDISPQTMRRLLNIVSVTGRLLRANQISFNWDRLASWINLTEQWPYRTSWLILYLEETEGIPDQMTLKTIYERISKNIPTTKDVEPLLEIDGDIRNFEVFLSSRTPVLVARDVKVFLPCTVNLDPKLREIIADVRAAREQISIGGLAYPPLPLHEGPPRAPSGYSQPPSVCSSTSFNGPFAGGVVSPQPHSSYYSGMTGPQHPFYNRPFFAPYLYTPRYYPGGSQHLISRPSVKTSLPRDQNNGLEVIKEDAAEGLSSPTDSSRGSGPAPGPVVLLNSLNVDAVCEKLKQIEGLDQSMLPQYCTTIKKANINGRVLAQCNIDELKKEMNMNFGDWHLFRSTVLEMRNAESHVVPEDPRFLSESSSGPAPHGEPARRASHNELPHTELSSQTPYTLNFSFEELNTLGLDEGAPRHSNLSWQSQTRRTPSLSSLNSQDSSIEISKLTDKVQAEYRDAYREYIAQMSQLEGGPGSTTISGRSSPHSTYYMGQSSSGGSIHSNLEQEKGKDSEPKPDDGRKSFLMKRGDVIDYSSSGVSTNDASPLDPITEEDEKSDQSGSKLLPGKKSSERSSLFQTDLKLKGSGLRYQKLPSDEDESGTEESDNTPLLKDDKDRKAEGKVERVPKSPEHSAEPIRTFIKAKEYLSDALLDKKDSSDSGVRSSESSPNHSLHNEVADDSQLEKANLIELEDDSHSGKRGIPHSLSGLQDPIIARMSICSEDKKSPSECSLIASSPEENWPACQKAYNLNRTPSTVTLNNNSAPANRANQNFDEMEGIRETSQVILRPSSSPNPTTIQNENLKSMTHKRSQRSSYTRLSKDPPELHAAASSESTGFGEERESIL
UniProt Q9H1K1: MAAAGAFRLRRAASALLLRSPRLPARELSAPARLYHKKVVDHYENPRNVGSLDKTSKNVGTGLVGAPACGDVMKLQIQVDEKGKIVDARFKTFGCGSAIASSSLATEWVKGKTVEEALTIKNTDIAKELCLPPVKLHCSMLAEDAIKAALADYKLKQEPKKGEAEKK
UniProt O95239, 1046-1074: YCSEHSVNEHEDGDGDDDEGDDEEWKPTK

How the values were obtained:
[1] = compound: ClCC(=O)N[C@@H]1CCCc2ccccc12; assay: log2 mean competition ratio of IA-DTB cysteine labelling (DMSO/compound) (log2 ratio); higher = stronger cysteine engagement by compound; details: treatment time: 4 h, cell line lysate: HEK293T
Protocol: (§1)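 IA-DTB competitive cysteine chemoproteomics in HEK293T RIPA lysate. Lysates were treated with compound 29 or 30 at 50 or 200 µM for 4 h, then IA-DTB (500 µM, 1 h), trypsin-digested, NeutrAvidin-enriched and analysed by diaPASEF. Competition ratio = intensity DMSO / intensity compound (n=4 treated, n=64 DMSO); binding: mean log2 CR ≥ 1 and p ≤ 0.05 plus QC filters. Target is the cysteine site.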

[2] = compound: ClCC(=O)N[C@H]1CCCc2ccccc12; assay: as above; details: treatment time: 4 h, cell line lysate: HEK293T
Protocol: as §1

| Target | log2 mean competition ratio ([1]; 50 µM) | log2 mean competition ratio ([1]; 200 µM) | log2 mean competition ratio ([2]; 50 µM) | log2 mean competition ratio ([2]; 200 µM) |
| --- | --- | --- | --- | --- |
| KIF18A C710 | -0.0693 | -0.0527 | -0.0626 | 0.124 |
| JRK C428 (UniProt O75564) | -0.11 | -0.0586 | -0.0332 | 0.149 |
| KIF5A C394 (UniProt Q12840) | -0.326 | -0.0673 | 0.344 | -0.236 |
| JCAD C904 | 0.0515 | 0.0865 | 0.301 | 0.337 |
| KDM3A C695 (UniProt Q9Y4C1) | 0.118 | 0.0198 | 0.0969 | 0.02 |
| KATNB1 C579 (UniProt Q9BVA0) | 0.13 | -0.0849 | 0.0222 | -0.244 |
| ITPR1 C292 (UniProt Q14643) | 0.0666 | -0.333 | -0.201 | -0.261 |
| KIF23 C791 (UniProt Q02241) | -0.0939 | 0.278 | -0.124 | 0.194 |
| KIF1B C1771 (UniProt O60333) | 0.0789 | 0.0907 | -0.0389 | 0.202 |
| ITPR2 C1462 (UniProt Q14571) | -0.121 | 0.023 | -0.113 | -0.0662 |
| KIAA0232 C1077 | -0.0364 | 0.438 | -0.719 | 0.149 |
| JARID2 C522 (UniProt Q92833) | -0.202 | 0.207 | 0.0578 | 0.491 |
| IRS4 C4 | 0.0976 | 0.196 | 0.332 | 0.168 |
| KIF24 C1154 | -0.154 | 0.356 | -0.0348 | 0.221 |
| ITPR2 C1415 (UniProt Q14571) | -0.194 | -0.0451 | -0.421 | -0.131 |
| ITPRID2 C703 (UniProt P28290) | 0.448 | 0.256 | 0.389 | 0.256 |
| KHNYN C157 (UniProt O15037) | 0.409 | 1.09 | 0.225 | 1.03 |
| KIF15 C1335 (UniProt Q9NS87) | -0.0335 | -0.15 | 0.128 | -0.272 |
| KIAA1671 C882 | 0.0582 | 0.173 | -0.028 | 0.357 |
| IWS1 C749 (UniProt Q96ST2) | 0.0235 | 0.0754 | 0.193 | 0.205 |
| KIF16B C1141 (UniProt Q96L93) | 0.14 | -0.108 | 0.142 | -0.0795 |
| KIF21A C1144 | -0.0525 | -0.2 | 0.22 | -0.314 |
| KIF20B C1158 (UniProt Q96Q89) | -0.0276 | 0.0594 | -0.144 | 0.0548 |

As entered above:
Value for KATNB1 C579 (UniProt Q9BVA0) under log2 mean competition ratio ([1]; 200 µM): -0.0849
Value for KIF23 C791 (UniProt Q02241) under log2 mean competition ratio ([2]; 50 µM): -0.124

Later entries.

| Target | log2 mean competition ratio ([1]; 50 µM) | log2 mean competition ratio ([1]; 200 µM) | log2 mean competition ratio ([2]; 50 µM) | log2 mean competition ratio ([2]; 200 µM) |
| --- | --- | --- | --- | --- |
| KCTD9 C282 (UniProt Q7L273) | -0.105 | 0.0665 | -0.449 | -0.14 |
| KARS1 C434 (UniProt Q15046) | -0.307 | -0.48 | 0.338 | -0.128 |
| JUP C49 (UniProt P14923) | -0.0286 | 0.393 | -0.102 | 0.319 |
| KDM5C C629 (UniProt P41229) | 0.188 | 0.077 | 0.0751 | 0.129 |
| KIF18A C460 | -0.0955 | -0.0928 | 0.0366 | -0.281 |
| KCTD3 C599 (UniProt Q9Y597) | 0.0774 | 0.0362 | -0.317 | 0.109 |
| KDM3A C364 (UniProt Q9Y4C1) | 0.0556 | -0.0679 | 0.247 | 0.254 |
| IRS4 C332 | -0.0984 | -0.116 | 0.21 | 0.135 |
| KDM4A C560 (UniProt O75164) | -0.0733 | 0.0879 | 0.188 | 0.0794 |
| KAZN C348 (UniProt Q674X7) | 0.00031 | 0.101 | 0.107 | 0.129 |
| KDM5C C129 (UniProt P41229) | -0.325 | -0.113 | -0.158 | -0.15 |
| KIAA0513 C125 (UniProt O60268) | -0.0438 | -0.0316 | -0.413 | 0.0034 |
| KDM4C C14 (UniProt Q9H3R0) | -0.114 | -0.0445 | -0.0878 | 0.167 |
| KDM5A C794 (UniProt P29375) | -0.266 | -0.401 | -0.517 | -0.105 |
| KIDINS220 C1050 (UniProt Q9ULH0) | -0.209 | 0.144 | -0.187 | 0.328 |
| ITPR1 C37 (UniProt Q14643) | -0.182 | -0.211 | -0.148 | -0.377 |
| KDM3A C953 (UniProt Q9Y4C1) | -0.0411 | 0.217 | -0.0714 | 0.333 |
| ISCU C69 (UniProt Q9H1K1) | 0.0219 | 0.137 | 0.611 | -0.218 |
| JAK1 C763 (UniProt P23458) | 0.216 | -0.157 | 0.112 | 0.128 |
| ITCH C57 (UniProt Q96J02) | -0.0153 | 5.68e-05 | -0.126 | -0.0397 |
| KIF20A C87 (UniProt O95235) | -0.256 | 0.136 | -0.132 | 0.354 |
| KIAA1107 C311 | 0.19 | -0.182 | 0.211 | -0.145 |
| KIF4A C1047 (UniProt O95239) | -0.0688 | 0.174 | -0.405 | 0.0244 |
